# Results: the supplement of paper PMC8728848
# Some of the results follow.
# How the values were obtained:
# Test in all cases: glycan array binding signal (z-score within array); higher = stronger binding
# Details in all cases: glycan notation: IUPAC condensed, linker removed
# [1] = biological target: Gal(b1-4)GlcNAc(b1-3)Gal(b1-4)GlcNAc(b1-2)[Gal(b1-4)GlcNAc(b1-3)Gal(b1-4)GlcNAc(b1-6)]Man(a1-6)[Gal(b1-4)GlcNAc(b1-3)Gal(b1-4)GlcNAc(b1-2)Man(a1-3)]Man(b1-4)GlcNAc(b1-4)GlcNAc
# How it was run: (§1)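 Negative Z-scores can be read as non-binding. The Z-score is calculated within each array and then averaged across arrays of one protein sequence at different concentrations or buffers and across linkers. Arrays, 3228 in all, were curated from the Consortium for Functional Glycomics database and kept only where the protein sequence was available.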
# [2] = biological target: Gal(b1-4)GlcNAc(b1-3)Gal(b1-4)GlcNAc(b1-2)[Gal(b1-4)GlcNAc(b1-3)Gal(b1-4)GlcNAc(b1-6)]Man(a1-6)[Gal(b1-4)GlcNAc(b1-3)Gal(b1-4)GlcNAc(b1-2)Man(a1-3)]Man(b1-4)GlcNAc(b1-4)[Fuc(a1-6)]GlcNAc
# How it was run: as §1
# [3] = biological target: Gal(b1-4)GlcNAc(b1-3)Gal(b1-4)GlcNAc(b1-3)Gal(b1-4)GlcNAc
# How it was run: as §1
# [4] = biological target: Gal(b1-4)GlcNAc(b1-3)Gal(b1-4)GlcNAc(b1-3)Gal(b1-4)GlcNAc(b1-2)Man(a1-3)[Gal(b1-4)GlcNAc(b1-3)Gal(b1-4)GlcNAc(b1-3)Gal(b1-4)GlcNAc(b1-2)Man(a1-6)]Man(b1-4)GlcNAc(b1-4)GlcNAc
# How it was run: as §1
# [5] = biological target: Gal(b1-4)GlcNAc(b1-3)Gal(b1-4)GlcNAc(b1-3)Gal(b1-4)GlcNAc(b1-2)Man(a1-3)[Gal(b1-4)GlcNAc(b1-3)Gal(b1-4)GlcNAc(b1-3)Gal(b1-4)GlcNAc(b1-2)Man(a1-6)]Man(b1-4)GlcNAc(b1-4)[Fuc(a1-6)]GlcNAc
# How it was run: as §1
# [6] = biological target: Gal(b1-4)GlcNAc(b1-3)Gal(b1-4)GlcNAc(b1-3)Gal(b1-4)GlcNAc(b1-2)[Gal(b1-4)GlcNAc(b1-3)Gal(b1-4)GlcNAc(b1-3)Gal(b1-4)GlcNAc(b1-6)]Man(a1-6)[Gal(b1-4)GlcNAc(b1-3)Gal(b1-4)GlcNAc(b1-3)Gal(b1-4)GlcNAc(b1-2)Man(a1-3)]Man(b1-4)GlcNAc(b1-4)[Fuc(a1-6)]GlcNAc
# How it was run: as §1
# [7] = biological target: Gal(b1-4)GlcNAc(b1-3)Gal(b1-4)GlcNAc(b1-3)Gal(b1-4)GlcNAc(b1-3)Gal(b1-4)GlcNAc(b1-2)Man(a1-3)[Gal(b1-4)GlcNAc(b1-3)Gal(b1-4)GlcNAc(b1-3)Gal(b1-4)GlcNAc(b1-3)Gal(b1-4)GlcNAc(b1-2)Man(a1-6)]Man(b1-4)GlcNAc(b1-4)GlcNAc
# How it was run: as §1
# [8] = biological target: Gal(b1-4)GlcNAc(b1-3)Gal(b1-4)GlcNAc(b1-3)Gal(b1-4)GlcNAc(b1-3)Gal(b1-4)GlcNAc(b1-2)Man(a1-3)[Gal(b1-4)GlcNAc(b1-3)Gal(b1-4)GlcNAc(b1-3)Gal(b1-4)GlcNAc(b1-3)Gal(b1-4)GlcNAc(b1-2)Man(a1-6)]Man(b1-4)GlcNAc(b1-4)[Fuc(a1-6)]GlcNAc
# How it was run: as §1
# [9] = biological target: Gal(b1-4)GlcNAc(b1-3)Gal(b1-4)GlcNAc(b1-3)Gal(b1-4)GlcNAc(b1-3)Gal(b1-4)GlcNAc(b1-2)[Gal(b1-4)GlcNAc(b1-3)Gal(b1-4)GlcNAc(b1-3)Gal(b1-4)GlcNAc(b1-3)Gal(b1-4)GlcNAc(b1-6)]Man(a1-6)[Gal(b1-4)GlcNAc(b1-3)Gal(b1-4)GlcNAc(b1-3)Gal(b1-4)GlcNAc(b1-3)Gal(b1-4)GlcNAc(b1-2)Man(a1-3)]Man(b1-4)GlcNAc(b1-4)[Fuc(a1-6)]GlcNAc
# How it was run: as §1
# [10] = biological target: Gal(b1-4)GlcNAc(b1-3)Gal(b1-4)GlcNAc(b1-3)Gal(b1-4)GlcNAc(b1-3)Gal(b1-4)GlcNAc(b1-3)Gal(b1-4)GlcNAc(b1-2)Man(a1-3)[Gal(b1-4)GlcNAc(b1-3)Gal(b1-4)GlcNAc(b1-3)Gal(b1-4)GlcNAc(b1-3)Gal(b1-4)GlcNAc(b1-3)Gal(b1-4)GlcNAc(b1-2)Man(a1-6)]Man(b1-4)GlcNAc(b1-4)GlcNAc
# How it was run: as §1
# [11] = biological target: Gal(b1-4)GlcNAc(b1-3)Gal(b1-4)GlcNAc(b1-3)Gal(b1-4)GlcNAc(b1-3)Gal(b1-4)GlcNAc(b1-3)Gal(b1-4)GlcNAc(b1-2)Man(a1-3)[Gal(b1-4)GlcNAc(b1-3)Gal(b1-4)GlcNAc(b1-3)Gal(b1-4)GlcNAc(b1-3)Gal(b1-4)GlcNAc(b1-3)Gal(b1-4)GlcNAc(b1-2)Man(a1-6)]Man(b1-4)GlcNAc(b1-4)[Fuc(a1-6)]GlcNAc
# How it was run: as §1
# [12] = biological target: Gal(b1-4)GlcNAc(b1-3)Gal(b1-4)GlcNAc(b1-3)Gal(b1-4)GlcNAc(b1-3)Gal(b1-4)GlcNAc(b1-3)Gal(b1-4)GlcNAc(b1-2)[Gal(b1-4)GlcNAc(b1-3)Gal(b1-4)GlcNAc(b1-3)Gal(b1-4)GlcNAc(b1-3)Gal(b1-4)GlcNAc(b1-3)Gal(b1-4)GlcNAc(b1-6)]Man(a1-6)[Gal(b1-4)GlcNAc(b1-3)Gal(b1-4)GlcNAc(b1-3)Gal(b1-4)GlcNAc(b1-3)Gal(b1-4)GlcNAc(b1-3)Gal(b1-4)GlcNAc(b1-2)Man(a1-3)]Man(b1-4)GlcNAc(b1-4)[Fuc(a1-6)]GlcNAc
# How it was run: as §1
# [13] = biological target: Gal(b1-4)GlcNAc(b1-3)Gal(b1-4)GlcNAc(b1-3)Gal(b1-4)GlcNAc(b1-3)Gal(b1-4)GlcNAc(b1-3)Gal(b1-4)GlcNAc(b1-3)Gal(b1-4)GlcNAc(b1-2)Man(a1-3)[Gal(b1-4)GlcNAc(b1-3)Gal(b1-4)GlcNAc(b1-3)Gal(b1-4)GlcNAc(b1-3)Gal(b1-4)GlcNAc(b1-3)Gal(b1-4)GlcNAc(b1-3)Gal(b1-4)GlcNAc(b1-2)Man(a1-6)]Man(b1-4)GlcNAc(b1-4)GlcNAc
# How it was run: as §1
# [14] = biological target: Gal(b1-4)GlcNAc(b1-3)Gal(b1-4)GlcNAc(b1-3)GalNAc
# How it was run: as §1
# [15] = biological target: Gal(b1-4)GlcNAc(b1-3)Gal(b1-4)GlcNAc(b1-3)[Gal(b1-4)GlcNAc(b1-3)Gal(b1-4)GlcNAc(b1-6)]GalNAc
# How it was run: as §1
# [16] = biological target: Gal(b1-4)GlcNAc(b1-3)Gal(b1-4)GlcNAc(b1-6)[Gal(b1-3)]GalNAc
# How it was run: as §1
# [17] = biological target: Gal(b1-4)GlcNAc(b1-3)Gal(b1-4)[Fuc(a1-3)]GlcNAc(b1-3)Gal(b1-4)[Fuc(a1-3)]GlcNAc
# How it was run: as §1
# [18] = biological target: Gal(b1-4)GlcNAc(b1-3)GalNAc
# How it was run: as §1
# [19] = biological target: Gal(b1-4)GlcNAc(b1-3)[Fuc(a1-3)GlcNAc(b1-6)]Gal(b1-4)Glc
# How it was run: as §1
# [20] = biological target: Gal(b1-4)GlcNAc(b1-3)[Gal(b1-4)GlcNAc(b1-6)]Gal(b1-4)GlcNAc
# How it was run: as §1
# [21] = biological target: Gal(b1-4)GlcNAc(b1-3)[GlcNAc(b1-6)]Gal(b1-4)GlcNAc
# How it was run: as §1
# [22] = biological target: Gal(b1-4)GlcNAc(b1-6)Gal(b1-4)GlcNAc
# How it was run: as §1
# [23] = biological target: Gal(b1-4)GlcNAc(b1-6)GalNAc
# How it was run: as §1
# [24] = biological target: Gal(b1-4)GlcNAc(b1-6)[Gal(b1-3)]GalNAc
# How it was run: as §1
# [25] = biological target: Gal(b1-4)GlcNAc(b1-6)[Gal(b1-4)GlcNAc(b1-3)]GalNAc
# How it was run: as §1
# [26] = biological target: Gal(b1-4)GlcNAc6P
# How it was run: as §1
# [27] = biological target: Gal(b1-6)Gal
# How it was run: as §1
# [28] = biological target: Gal3S(b1-3)GalNAc
# How it was run: as §1
# [29] = biological target: Gal3S(b1-3)GlcNAc
# How it was run: as §1
# [30] = biological target: Gal3S(b1-3)[Fuc(a1-4)]GlcNAc
# How it was run: as §1
# [31] = biological target: Gal3S(b1-4)Glc
# How it was run: as §1
# [32] = biological target: Gal3S(b1-4)Glc6S
# How it was run: as §1
# [33] = biological target: Gal3S(b1-4)GlcNAc
# How it was run: as §1
# [34] = biological target: Gal3S(b1-4)[Fuc(a1-3)]Glc6S
# How it was run: as §1
# [35] = biological target: Gal3S(b1-4)[Fuc(a1-3)]GlcNAc
# How it was run: as §1
# [36] = biological target: Gal3S(b1-4)[Fuc(a1-3)]GlcNAc6S
# How it was run: as §1
# [37] = biological target: Gal3S4S(b1-4)GlcNAc
# How it was run: as §1
binder,measurement,setting,value
"AntigenI/IIC123 (Streptococcus mutans), C9E3B4 (protein) MASMTGGQQMGRIHFHYFKLAVQPQVNKEIRNNNDINIDRTLVAKQSVVKFQLKTADLPAGRDETTSFVLVDPLPSGYQFNPEATKAASPGFDVTYDNATNTVTFKATAATLATFNADLTKSVATIYPTVVGQVLNDGATYKNNFTLTVNDAYGIKSNVVRVTTPGKPNDPDNPNNNYIKPTKVNKNENGVVIDGKTVLAGSTNYYELTWDLDQYKNDRSSADTIQKGFYYVDDYPEEALELRQDLVKITDANGNEVTGVSVDNYTNLEAAPQEIRDVLSKAGIRPKGAFQIFRADNPREFYDTYVKTGIDLKIVSPMVVKKQMGQTGGSYENQAYQIDFGNGYASNIIINNVPKINPKKDVTLTLDPADTNNVDGQTIPLNTVFNYRLIGGIIPADHSEELFEYNFYDDYDQTGDHYTGQYKVFAKVDITFKDGSIIKSGAELTQYTTAEVDTAKGAITIKFKEAFLRSVSIDSAFQAESYIQMKRIAVGTFENTYINTVNGVTYSSLEHHHHHH",glycan array binding signal (z-score),[1],1.01
same,glycan array binding signal (z-score),[2],4.84
same,glycan array binding signal (z-score),[3],-0.417
same,glycan array binding signal (z-score),[4],2.33
same,glycan array binding signal (z-score),[5],3.9
same,glycan array binding signal (z-score),[6],3.08
same,glycan array binding signal (z-score),[7],0.859
same,glycan array binding signal (z-score),[8],2.83
same,glycan array binding signal (z-score),[9],2.31
same,glycan array binding signal (z-score),[10],0.725
same,glycan array binding signal (z-score),[11],0.176
same,glycan array binding signal (z-score),[12],4.43
same,glycan array binding signal (z-score),[13],0.577
same,glycan array binding signal (z-score),[14],-0.676
same,glycan array binding signal (z-score),[15],-0.036
same,glycan array binding signal (z-score),[16],-0.271
same,glycan array binding signal (z-score),[17],-0.431
same,glycan array binding signal (z-score),[18],-0.982
same,glycan array binding signal (z-score),[19],-1.07
same,glycan array binding signal (z-score),[20],-0.642
same,glycan array binding signal (z-score),[21],-0.644
same,glycan array binding signal (z-score),[22],0.798
same,glycan array binding signal (z-score),[23],0.962
same,glycan array binding signal (z-score),[24],-0.39
same,glycan array binding signal (z-score),[25],-0.426
same,glycan array binding signal (z-score),[26],-0.135
same,glycan array binding signal (z-score),[27],0.178
same,glycan array binding signal (z-score),[28],-0.353
same,glycan array binding signal (z-score),[29],-0.283
same,glycan array binding signal (z-score),[30],0.191
same,glycan array binding signal (z-score),[31],-0.499
same,glycan array binding signal (z-score),[32],0.433
same,glycan array binding signal (z-score),[33],-0.346
same,glycan array binding signal (z-score),[34],2.84
same,glycan array binding signal (z-score),[35],0.749
same,glycan array binding signal (z-score),[36],-0.92
same,glycan array binding signal (z-score),[37],-0.756

# Exported as tab-separated lines: entries from further up.
binder	measurement	setting	value
AntigenI/IIC123 (Streptococcus mutans), C9E3B4 (protein) MASMTGGQQMGRIHFHYFKLAVQPQVNKEIRNNNDINIDRTLVAKQSVVKFQLKTADLPAGRDETTSFVLVDPLPSGYQFNPEATKAASPGFDVTYDNATNTVTFKATAATLATFNADLTKSVATIYPTVVGQVLNDGATYKNNFTLTVNDAYGIKSNVVRVTTPGKPNDPDNPNNNYIKPTKVNKNENGVVIDGKTVLAGSTNYYELTWDLDQYKNDRSSADTIQKGFYYVDDYPEEALELRQDLVKITDANGNEVTGVSVDNYTNLEAAPQEIRDVLSKAGIRPKGAFQIFRADNPREFYDTYVKTGIDLKIVSPMVVKKQMGQTGGSYENQAYQIDFGNGYASNIIINNVPKINPKKDVTLTLDPADTNNVDGQTIPLNTVFNYRLIGGIIPADHSEELFEYNFYDDYDQTGDHYTGQYKVFAKVDITFKDGSIIKSGAELTQYTTAEVDTAKGAITIKFKEAFLRSVSIDSAFQAESYIQMKRIAVGTFENTYINTVNGVTYSSLEHHHHHH	glycan array binding signal (z-score)	[7]	0.859
same	glycan array binding signal (z-score)	[23]	0.962
